Measurements from the supplement of paper PMC10849652.
Some of the results follow.

Protein sequences, listed by entry. Tags and fused reporters are not part of them. Lines headed by an entry give the natural chain unless they say otherwise; changes in a name come on top.
UniProt Q9BSV6: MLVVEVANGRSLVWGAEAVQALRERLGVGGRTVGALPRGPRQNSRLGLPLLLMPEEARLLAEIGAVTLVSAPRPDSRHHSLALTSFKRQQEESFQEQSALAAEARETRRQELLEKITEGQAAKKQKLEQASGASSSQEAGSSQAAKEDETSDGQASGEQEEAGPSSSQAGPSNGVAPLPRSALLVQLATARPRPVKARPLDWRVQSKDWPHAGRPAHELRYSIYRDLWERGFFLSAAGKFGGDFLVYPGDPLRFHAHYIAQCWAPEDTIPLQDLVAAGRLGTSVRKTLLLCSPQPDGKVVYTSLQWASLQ
UniProt Q15645: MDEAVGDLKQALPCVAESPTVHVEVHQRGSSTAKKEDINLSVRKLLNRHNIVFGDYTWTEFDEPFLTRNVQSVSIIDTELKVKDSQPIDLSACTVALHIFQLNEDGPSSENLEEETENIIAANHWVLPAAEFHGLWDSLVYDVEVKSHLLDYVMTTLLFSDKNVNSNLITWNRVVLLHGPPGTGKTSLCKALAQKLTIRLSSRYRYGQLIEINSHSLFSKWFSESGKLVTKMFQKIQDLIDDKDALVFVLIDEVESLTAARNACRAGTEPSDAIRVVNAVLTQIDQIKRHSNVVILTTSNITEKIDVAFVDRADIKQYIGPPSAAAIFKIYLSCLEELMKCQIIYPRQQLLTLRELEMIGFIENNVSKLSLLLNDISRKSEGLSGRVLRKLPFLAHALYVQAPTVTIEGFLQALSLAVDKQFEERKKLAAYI
UniProt O43715: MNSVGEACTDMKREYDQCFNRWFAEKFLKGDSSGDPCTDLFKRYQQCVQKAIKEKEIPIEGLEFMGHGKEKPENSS
UniProt P06753, whole entry, looked up: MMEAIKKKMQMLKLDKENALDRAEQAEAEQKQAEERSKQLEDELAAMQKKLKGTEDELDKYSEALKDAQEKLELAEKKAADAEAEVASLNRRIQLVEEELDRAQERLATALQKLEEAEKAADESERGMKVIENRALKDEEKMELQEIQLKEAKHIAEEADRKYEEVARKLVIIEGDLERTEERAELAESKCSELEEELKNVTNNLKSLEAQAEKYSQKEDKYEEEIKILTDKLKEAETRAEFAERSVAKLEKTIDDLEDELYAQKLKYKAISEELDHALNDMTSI
UniProt P11388: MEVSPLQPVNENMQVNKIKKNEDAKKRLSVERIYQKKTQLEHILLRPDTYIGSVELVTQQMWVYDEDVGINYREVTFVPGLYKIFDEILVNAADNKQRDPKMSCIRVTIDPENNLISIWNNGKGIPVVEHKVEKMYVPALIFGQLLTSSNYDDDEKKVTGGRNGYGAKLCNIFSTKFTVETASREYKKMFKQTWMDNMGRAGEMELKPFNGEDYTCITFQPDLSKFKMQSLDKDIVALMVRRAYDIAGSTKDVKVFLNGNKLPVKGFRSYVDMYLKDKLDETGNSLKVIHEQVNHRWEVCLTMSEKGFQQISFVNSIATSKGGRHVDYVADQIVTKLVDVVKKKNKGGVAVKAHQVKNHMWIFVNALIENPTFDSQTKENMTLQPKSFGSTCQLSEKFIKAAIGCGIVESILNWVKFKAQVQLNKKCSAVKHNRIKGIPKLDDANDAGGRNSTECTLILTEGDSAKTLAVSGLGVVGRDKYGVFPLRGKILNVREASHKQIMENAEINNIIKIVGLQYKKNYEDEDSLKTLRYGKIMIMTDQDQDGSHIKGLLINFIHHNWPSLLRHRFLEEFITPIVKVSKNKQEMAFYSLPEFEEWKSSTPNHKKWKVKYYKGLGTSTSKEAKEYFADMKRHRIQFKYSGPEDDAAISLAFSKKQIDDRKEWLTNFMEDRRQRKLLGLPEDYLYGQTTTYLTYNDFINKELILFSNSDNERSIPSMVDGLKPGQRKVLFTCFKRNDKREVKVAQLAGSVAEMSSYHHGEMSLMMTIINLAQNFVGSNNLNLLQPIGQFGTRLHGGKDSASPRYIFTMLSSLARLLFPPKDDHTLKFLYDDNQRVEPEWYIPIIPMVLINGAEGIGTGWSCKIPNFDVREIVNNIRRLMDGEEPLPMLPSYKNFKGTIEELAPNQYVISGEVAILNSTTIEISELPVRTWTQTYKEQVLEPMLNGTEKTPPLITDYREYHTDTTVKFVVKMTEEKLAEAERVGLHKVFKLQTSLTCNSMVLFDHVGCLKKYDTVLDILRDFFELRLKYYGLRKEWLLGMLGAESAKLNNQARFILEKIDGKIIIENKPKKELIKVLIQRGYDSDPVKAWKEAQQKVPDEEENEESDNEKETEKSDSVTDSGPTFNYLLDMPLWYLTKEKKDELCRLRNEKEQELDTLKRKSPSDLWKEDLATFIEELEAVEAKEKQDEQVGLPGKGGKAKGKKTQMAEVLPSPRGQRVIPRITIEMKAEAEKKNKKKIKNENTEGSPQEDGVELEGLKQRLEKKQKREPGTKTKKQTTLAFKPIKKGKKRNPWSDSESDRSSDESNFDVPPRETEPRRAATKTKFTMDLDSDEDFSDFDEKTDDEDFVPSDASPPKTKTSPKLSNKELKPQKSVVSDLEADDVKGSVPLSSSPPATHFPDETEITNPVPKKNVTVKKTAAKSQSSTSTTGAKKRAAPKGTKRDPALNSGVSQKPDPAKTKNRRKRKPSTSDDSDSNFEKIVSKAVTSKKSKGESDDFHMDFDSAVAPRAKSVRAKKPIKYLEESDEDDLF
UniProt O60784, whole entry, looked up: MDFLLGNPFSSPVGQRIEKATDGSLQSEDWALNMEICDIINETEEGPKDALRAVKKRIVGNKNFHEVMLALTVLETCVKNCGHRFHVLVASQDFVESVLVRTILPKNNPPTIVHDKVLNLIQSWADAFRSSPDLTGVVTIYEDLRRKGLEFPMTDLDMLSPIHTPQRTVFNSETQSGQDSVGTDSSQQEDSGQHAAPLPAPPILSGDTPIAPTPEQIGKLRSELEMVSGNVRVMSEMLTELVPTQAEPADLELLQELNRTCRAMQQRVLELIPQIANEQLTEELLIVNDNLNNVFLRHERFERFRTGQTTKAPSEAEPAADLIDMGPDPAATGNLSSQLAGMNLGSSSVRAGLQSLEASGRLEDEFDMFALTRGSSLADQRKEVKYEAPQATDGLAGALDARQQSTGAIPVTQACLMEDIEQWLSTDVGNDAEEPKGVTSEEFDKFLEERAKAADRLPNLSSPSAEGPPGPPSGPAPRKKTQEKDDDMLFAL
UniProt Q9UPQ9, whole entry, looked up: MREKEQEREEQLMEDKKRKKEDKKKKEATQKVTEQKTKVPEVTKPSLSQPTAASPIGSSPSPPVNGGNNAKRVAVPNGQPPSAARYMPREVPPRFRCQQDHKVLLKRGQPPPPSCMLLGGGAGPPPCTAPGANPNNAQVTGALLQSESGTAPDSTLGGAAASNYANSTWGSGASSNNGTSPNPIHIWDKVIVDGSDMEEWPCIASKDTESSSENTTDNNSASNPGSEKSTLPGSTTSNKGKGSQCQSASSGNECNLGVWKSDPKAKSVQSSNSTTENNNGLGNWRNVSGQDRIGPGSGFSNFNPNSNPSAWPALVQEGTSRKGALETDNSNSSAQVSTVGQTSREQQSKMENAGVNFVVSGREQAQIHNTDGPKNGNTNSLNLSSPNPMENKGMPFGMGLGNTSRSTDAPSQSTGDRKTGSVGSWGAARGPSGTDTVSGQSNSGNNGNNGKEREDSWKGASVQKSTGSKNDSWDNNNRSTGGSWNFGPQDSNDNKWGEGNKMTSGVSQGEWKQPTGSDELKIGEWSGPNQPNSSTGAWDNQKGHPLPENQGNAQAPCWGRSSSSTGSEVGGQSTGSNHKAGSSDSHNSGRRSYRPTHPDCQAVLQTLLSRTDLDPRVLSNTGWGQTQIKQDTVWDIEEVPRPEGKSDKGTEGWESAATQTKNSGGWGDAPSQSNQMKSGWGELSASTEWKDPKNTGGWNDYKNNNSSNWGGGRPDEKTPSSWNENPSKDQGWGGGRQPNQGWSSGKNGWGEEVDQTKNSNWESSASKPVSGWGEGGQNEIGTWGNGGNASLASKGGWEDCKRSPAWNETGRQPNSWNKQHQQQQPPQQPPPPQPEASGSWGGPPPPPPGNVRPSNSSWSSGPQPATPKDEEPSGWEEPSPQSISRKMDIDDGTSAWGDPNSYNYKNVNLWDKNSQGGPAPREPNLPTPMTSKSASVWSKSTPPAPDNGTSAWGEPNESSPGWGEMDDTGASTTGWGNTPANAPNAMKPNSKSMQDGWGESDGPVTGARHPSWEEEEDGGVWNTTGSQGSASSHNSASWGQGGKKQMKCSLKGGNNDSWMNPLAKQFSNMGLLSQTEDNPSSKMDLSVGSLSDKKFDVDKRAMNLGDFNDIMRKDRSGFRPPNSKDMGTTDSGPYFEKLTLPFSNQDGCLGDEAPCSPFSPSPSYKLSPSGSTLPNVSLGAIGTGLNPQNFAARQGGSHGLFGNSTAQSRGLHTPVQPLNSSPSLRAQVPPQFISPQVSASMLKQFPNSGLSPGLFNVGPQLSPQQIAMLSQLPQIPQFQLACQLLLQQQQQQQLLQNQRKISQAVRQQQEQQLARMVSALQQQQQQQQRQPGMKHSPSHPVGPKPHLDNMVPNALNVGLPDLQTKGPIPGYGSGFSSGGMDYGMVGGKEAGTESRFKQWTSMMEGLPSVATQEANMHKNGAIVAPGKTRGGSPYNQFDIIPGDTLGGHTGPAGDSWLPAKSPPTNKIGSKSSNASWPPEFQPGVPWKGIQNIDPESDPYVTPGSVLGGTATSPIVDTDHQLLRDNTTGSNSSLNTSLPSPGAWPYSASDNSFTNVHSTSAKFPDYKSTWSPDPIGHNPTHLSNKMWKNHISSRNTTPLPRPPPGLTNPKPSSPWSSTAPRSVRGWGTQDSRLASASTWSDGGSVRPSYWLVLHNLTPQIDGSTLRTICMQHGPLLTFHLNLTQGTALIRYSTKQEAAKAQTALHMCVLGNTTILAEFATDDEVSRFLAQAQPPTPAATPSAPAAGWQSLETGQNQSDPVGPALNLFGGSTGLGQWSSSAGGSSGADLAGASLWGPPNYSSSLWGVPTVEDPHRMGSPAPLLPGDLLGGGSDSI
UniProt Q5JU69: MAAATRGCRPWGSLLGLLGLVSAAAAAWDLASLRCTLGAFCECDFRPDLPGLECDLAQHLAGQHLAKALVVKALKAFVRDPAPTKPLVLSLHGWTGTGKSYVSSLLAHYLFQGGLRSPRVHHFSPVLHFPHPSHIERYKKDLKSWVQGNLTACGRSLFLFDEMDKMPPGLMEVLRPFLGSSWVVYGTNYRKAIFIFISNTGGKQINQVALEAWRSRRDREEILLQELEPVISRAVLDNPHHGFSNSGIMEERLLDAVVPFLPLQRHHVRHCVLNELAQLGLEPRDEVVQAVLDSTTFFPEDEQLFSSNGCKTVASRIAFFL
UniProt P48553, whole entry, looked up: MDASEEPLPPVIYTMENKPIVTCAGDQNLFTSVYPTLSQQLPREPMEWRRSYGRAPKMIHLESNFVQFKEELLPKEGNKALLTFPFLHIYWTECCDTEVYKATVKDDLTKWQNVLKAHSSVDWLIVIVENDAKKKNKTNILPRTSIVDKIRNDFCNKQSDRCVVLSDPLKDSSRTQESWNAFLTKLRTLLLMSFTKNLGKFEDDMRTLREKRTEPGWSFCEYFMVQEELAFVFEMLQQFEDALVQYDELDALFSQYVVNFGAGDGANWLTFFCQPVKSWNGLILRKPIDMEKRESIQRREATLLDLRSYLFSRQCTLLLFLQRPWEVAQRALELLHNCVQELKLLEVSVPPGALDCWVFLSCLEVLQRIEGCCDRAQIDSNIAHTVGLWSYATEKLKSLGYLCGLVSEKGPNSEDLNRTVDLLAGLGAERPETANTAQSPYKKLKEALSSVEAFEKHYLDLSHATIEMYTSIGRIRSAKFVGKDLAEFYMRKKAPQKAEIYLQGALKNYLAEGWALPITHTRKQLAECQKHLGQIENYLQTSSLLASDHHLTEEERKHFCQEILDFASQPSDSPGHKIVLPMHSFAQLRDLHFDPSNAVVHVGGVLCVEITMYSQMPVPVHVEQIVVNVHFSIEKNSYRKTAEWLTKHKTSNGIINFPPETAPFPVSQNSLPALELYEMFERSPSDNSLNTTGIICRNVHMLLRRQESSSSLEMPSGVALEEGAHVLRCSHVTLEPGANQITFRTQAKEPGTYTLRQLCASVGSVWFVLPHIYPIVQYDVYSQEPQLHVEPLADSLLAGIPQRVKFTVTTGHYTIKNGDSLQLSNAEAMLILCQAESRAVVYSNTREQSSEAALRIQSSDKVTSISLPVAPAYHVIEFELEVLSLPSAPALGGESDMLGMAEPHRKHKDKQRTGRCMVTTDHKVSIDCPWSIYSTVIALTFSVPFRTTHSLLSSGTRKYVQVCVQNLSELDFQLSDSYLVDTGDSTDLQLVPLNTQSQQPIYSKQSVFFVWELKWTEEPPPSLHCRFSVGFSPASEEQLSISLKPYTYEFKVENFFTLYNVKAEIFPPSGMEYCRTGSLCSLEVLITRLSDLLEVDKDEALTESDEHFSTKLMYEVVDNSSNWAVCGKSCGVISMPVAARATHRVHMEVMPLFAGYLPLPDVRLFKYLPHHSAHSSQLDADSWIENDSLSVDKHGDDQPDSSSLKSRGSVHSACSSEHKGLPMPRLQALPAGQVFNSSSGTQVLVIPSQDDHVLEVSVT

What was measured:
Assay in all cases: log2 fold change, soluble protein after heating vs DMSO (PISA); higher = thermal stabilisation; K562 cells, 10 uM, 30 min; active = over 0.2 and 3.5 SD of the protein, either way, in both replicates (recomputed)
[1] = compound: CS(=O)(=O)c1ccc(-c2cnc(N)c(C(=O)Nc3ccccc3)n2)cc1
Outline: (§1)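 Thermal stability values are relative to control samples and come from duplicates. They are expressed as log2 fold changes. For measurement, K562 cells (2×10^6 cells/mL) received 10 μM compound for 30 min, and aliquots were heated for 3 min over 48°C-58°C, pooled, and extracted at 4°C in PBS with 0.5% NP-40. Soluble protein, the supernatant after 21,000xg for 90 min, was quantified by TMTpro 16plex LC-MS/MS with equalised channel sums.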

crizotinib = compound: C[C@@H](Oc1cc(-c2cnn(C3CCNCC3)c2)cnc1N)c1c(Cl)ccc(F)c1Cl [crizotinib]
Outline: as §1

[2] = compound: C[C@@H]1COCCN1C2=NC(=NC(=C2)C3(CC3)S(=O)(=O)C)C4=C5C=CNC5=CC=C4
Outline: as §1

[3] = compound: C[C@H](C1=CC=C(C=C1)C(=O)NC2=C3C=CNC3=NC=C2)N
Outline: as §1

duvelisib = compound: C[C@H](Nc1ncnc2nc[nH]c12)c1cc2cccc(Cl)c2c(=O)n1-c1ccccc1 [duvelisib]
Outline: as §1

gandotinib = compound: Cc1cc(Nc2cc(CN3CCOCC3)c3nc(C)c(Cc4ccc(Cl)cc4F)n3n2)n[nH]1 [gandotinib]
Outline: as §1

tozasertib = compound: Cc1cc(Nc2cc(N3CCN(C)CC3)nc(Sc3ccc(NC(=O)C4CC4)cc3)n2)n[nH]1 [tozasertib]
Outline: as §1

[4] = compound: Cc1cc(SCc2sc(-c3ccc(C(F)(F)F)cc3)nc2C)ccc1OCC(=O)O
Outline: as §1

doramapimod = compound: Cc1ccc(-n2nc(C(C)(C)C)cc2NC(=O)Nc2ccc(OCCN3CCOCC3)c3ccccc23)cc1 [doramapimod]
Outline: as §1

ispinesib = compound: Cc1ccc(C(=O)N(CCCN)[C@@H](c2nc3cc(Cl)ccc3c(=O)n2Cc2ccccc2)C(C)C)cc1 [ispinesib]
Outline: as §1

bafetinib = compound: Cc1ccc(NC(=O)c2ccc(CN3CC[C@H](N(C)C)C3)c(C(F)(F)F)c2)cc1Nc1nccc(-c2cncnc2)n1 [bafetinib]
Outline: as §1

[5] = compound: Cc1cccc(CC(=O)N2CCc3c2ccc(-c2cn(C)c4ncnc(N)c24)c3F)n1
Outline: as §1

nilotinib = compound: Cc1cn(-c2cc(NC(=O)c3ccc(C)c(Nc4nccc(-c5cccnc5)n4)c3)cc(C(F)(F)F)c2)cn1 [nilotinib]
Outline: as §1

[6] = compound: Cc1nc(Nc2n[nH]c3c2CN(C(=O)N[C@H](CN(C)C)c2ccccc2)C3(C)C)c2sccc2n1
Outline: as §1

dasatinib = compound: Cc1nc(Nc2ncc(C(=O)Nc3c(C)cccc3Cl)s2)cc(N2CCN(CCO)CC2)n1 [dasatinib]
Outline: as §1

[7] = compound: Cc1ncc(-c2ccnc(Nc3ccc(S(C)(=O)=O)cc3)n2)n1C(C)C
Outline: as §1

[8] = compound: Cn1cc(-c2ccc3c(c2)CCN3C(=O)Cc2cccc(C(F)(F)F)c2)c2c(N)ncnc21
Outline: as §1

[9] = compound: Cn1cc(-c2ccc3nnc(C(F)(F)c4ccc5ncccc5c4)n3n2)cn1
Outline: as §1

tipifarnib = compound: Cn1cncc1[C@@](N)(c1ccc(Cl)cc1)c1ccc2c(c1)c(-c1cccc(Cl)c1)cc(=O)n2C [tipifarnib]
Outline: as §1

mubritinib = compound: FC(F)(F)c1ccc(/C=C/c2nc(COc3ccc(CCCCn4ccnn4)cc3)co2)cc1 [mubritinib]
Outline: as §1

Measured: log2 fold change

TRMU (UniProt O75648)
inactive: [1] 0.035 | crizotinib 0.122 | [2] 0.134 | [3] 0.005 | duvelisib 0.055 | gandotinib 0.002 | tozasertib 0.01 | [4] 0.024 | doramapimod -0.049 | ispinesib 0.018 | bafetinib -0.063 | [5] -0.011 | nilotinib 0.034 | [6] -0.002 | dasatinib -0.047 | [7] 0.052 | [8] 0.015 | [9] 0.032 | tipifarnib 0.05 | mubritinib -0.03

TSEN34 (UniProt Q9BSV6)
inactive: [1] 0.051 | crizotinib -0.042 | [2] 0.073 | [3] 0.314 | duvelisib 0.012 | tozasertib 0.038 | [4] 0.118 | doramapimod -0.011 | ispinesib -0.041 | bafetinib -0.01 | nilotinib -0.062 | [6] -0.086 | dasatinib -0.158 | [7] -0.004 | [8] 0.266 | [9] -0.025 | tipifarnib -0.018 | mubritinib -0.137

TRIP13 (UniProt Q15645)
inactive: [1] -0.024 | crizotinib -0.043 | [2] 0.067 | [3] -0.111 | duvelisib 0.044 | gandotinib -0.128 | tozasertib -0.006 | [4] -0.014 | doramapimod -0.001 | ispinesib -0.032 | bafetinib -0.087 | [5] 0.108 | nilotinib -0.089 | [6] -0.065 | dasatinib -0.081 | [7] -0.031 | [8] 0.024 | [9] 0.053 | tipifarnib 0 | mubritinib 0.029

TNNC2 (UniProt P02585)
active: tozasertib -1.1
inactive: [1] -0.004 | crizotinib 0.06 | [2] 0.04 | [3] -0.005 | gandotinib 0.078 | [4] -0.059 | doramapimod -0.014 | ispinesib 0.022 | bafetinib -0.057 | [5] -0.058 | nilotinib 0.057 | [6] 0.024 | dasatinib 0.022 | [7] -0.015 | [8] 0.049 | [9] 0.032 | tipifarnib 0.015 | mubritinib 0.001

TRIAP1 (UniProt O43715)
inactive: [1] 0.023 | crizotinib 0.134 | [2] 0.106 | [3] -0.101 | duvelisib 0.08 | gandotinib -0.011 | tozasertib 0.014 | [4] 0.023 | doramapimod -0.034 | ispinesib 0.124 | bafetinib -0.152 | [5] -0.079 | nilotinib 0.04 | [6] -0.027 | dasatinib 0.104 | [7] -0.033 | [8] 0.122 | [9] 0.275 | tipifarnib 0.04 | mubritinib -0.008

TPM3 isoform 4 (UniProt P06753)
inactive: [1] 0.019 | crizotinib 0.04 | [2] 0.046 | [3] -0.049 | duvelisib -0.008 | gandotinib -0.052 | tozasertib -0.059 | [4] -0.125 | doramapimod -0.03 | ispinesib 0.02 | bafetinib -0.052 | [5] -0.043 | nilotinib 0.024 | [6] 0 | dasatinib 0.035 | [7] -0.055 | [8] 0.055 | [9] 0.037 | tipifarnib 0.037 | mubritinib 0.044

TOP2A isoform 4 (UniProt P11388)
inactive: [1] -0.071 | crizotinib -0.157 | [2] -0.337 | [3] 0.559 | gandotinib 0.158 | [4] 0.015 | doramapimod 0.362 | ispinesib -0.376 | bafetinib 0.308 | [5] 0.092 | nilotinib -0.119 | [6] 0.033 | dasatinib 0.102 | [7] -0.11 | [8] -0.29 | [9] -0.324 | tipifarnib 0.104 | mubritinib -0.292

TPCN1 isoform 3 (UniProt Q9ULQ1)
inactive: [1] 0.104 | crizotinib -0.023 | [2] 0.064 | [3] -0.036 | duvelisib 0.125 | gandotinib 0 | tozasertib -0.01 | [4] -0.034 | doramapimod 0.03 | ispinesib -0.255 | bafetinib 0 | [5] -0.125 | nilotinib -0.186 | [6] -0.059 | dasatinib -0.02 | [7] 0.068 | [8] 0.02 | [9] 0.069 | tipifarnib 0.055 | mubritinib 0.064

TOM1 isoform 2 (UniProt O60784)
inactive: [1] 0.146 | crizotinib -0.002 | [2] 0.035 | [3] -0.096 | gandotinib 0.101 | [4] 0.023 | doramapimod -0.078 | ispinesib -0.043 | bafetinib -0.122 | [5] 0.026 | nilotinib -0.055 | [6] -0.104 | dasatinib -0.034 | [7] 0.116 | [8] -0.015 | [9] -0.012 | tipifarnib 0.022 | mubritinib -0.033

TNRC6B (UniProt Q9UPQ9)
inactive: [1] -0.021 | crizotinib -0.056 | [2] -0.025 | [3] 0.033 | duvelisib -0.063 | gandotinib 0.078 | tozasertib -0.03 | [4] -0.078 | doramapimod 0.179 | bafetinib -0.028 | [5] 0.035 | dasatinib 0.127 | [8] 0.024 | tipifarnib 0.093

TRAPPC2L (UniProt Q9UL33)
inactive: [1] 0.009 | crizotinib -0.035 | [2] 0.054 | [3] 0.035 | gandotinib -0.023 | [4] 0.001 | doramapimod -0.143 | ispinesib 0.119 | bafetinib -0.042 | [5] -0.02 | nilotinib -0.062 | [6] -0.068 | dasatinib -0.118 | [7] 0.064 | [8] -0.041 | [9] -0.111 | tipifarnib -0.111 | mubritinib 0.013

Two successive entries already listed:
TOP2A isoform 4 (UniProt P11388)
inactive: [1] -0.071 | crizotinib -0.157 | [2] -0.337 | [3] 0.559 | gandotinib 0.158 | [4] 0.015 | doramapimod 0.362 | ispinesib -0.376 | bafetinib 0.308 | [5] 0.092 | nilotinib -0.119 | [6] 0.033 | dasatinib 0.102 | [7] -0.11 | [8] -0.29 | [9] -0.324 | tipifarnib 0.104 | mubritinib -0.292

TPCN1 isoform 3 (UniProt Q9ULQ1)
inactive: [1] 0.104 | crizotinib -0.023 | [2] 0.064 | [3] -0.036 | duvelisib 0.125 | gandotinib 0 | tozasertib -0.01 | [4] -0.034 | doramapimod 0.03 | ispinesib -0.255 | bafetinib 0 | [5] -0.125 | nilotinib -0.186 | [6] -0.059 | dasatinib -0.02 | [7] 0.068 | [8] 0.02 | [9] 0.069 | tipifarnib 0.055 | mubritinib 0.064

Continuation.

TPK1 (UniProt Q9H3S4)
inactive: [1] 0.044 | crizotinib -0.017 | [2] 0.075 | [3] 0.077 | duvelisib 0.039 | gandotinib -0.221 | tozasertib -0.005 | [4] 0.048 | doramapimod 0.01 | ispinesib -0.136 | bafetinib -0.005 | [5] -0.186 | dasatinib 0.044 | [8] -0.007 | [9] -0.026 | tipifarnib 0.02 | mubritinib 0

TPM4 isoform 2 (UniProt P67936)
inactive: [1] -0.088 | crizotinib 0.003 | [2] -0.034 | [3] 0.1 | duvelisib -0.122 | gandotinib -0.037 | tozasertib 0.032 | [4] -0.172 | doramapimod -0.057 | ispinesib -0.013 | bafetinib -0.08 | [5] -0.064 | nilotinib 0.02 | [6] -0.044 | dasatinib -0.052 | [7] 0.054 | [8] -0.022 | [9] -0.047 | tipifarnib -0.157 | mubritinib -0.006

TPP2 (UniProt Q5VZU9)
inactive: [1] 0.114 | crizotinib -0.082 | [2] -0.165 | [3] 0.329 | duvelisib -0.078 | tozasertib -0.426 | [4] 0.41 | doramapimod 0.093 | ispinesib -0.02 | bafetinib 0.053 | nilotinib 0.177 | [6] 0.163 | dasatinib 0.03 | [7] 0.063 | [8] -0.264 | [9] -0.041 | tipifarnib 0.026 | mubritinib -0.238

TOR2A (UniProt Q5JU69)
inactive: [1] 0.145 | crizotinib 0.042 | [2] 0.036 | [3] 0.053 | duvelisib 0.056 | gandotinib 0.168 | tozasertib 0.024 | [4] -0.179 | doramapimod 0.039 | ispinesib 0.052 | bafetinib -0.062 | [5] -0.049 | nilotinib -0.022 | [6] -0.018 | dasatinib 0.041 | [7] -0.007 | [8] 0.254 | [9] -0.047 | tipifarnib 0.089 | mubritinib -0.049

TRAPPC10 (UniProt P48553)
inactive: [1] 0.041 | crizotinib -0.093 | [2] -0.048 | [3] 0.009 | duvelisib -0.012 | gandotinib 0.07 | tozasertib -0.045 | [4] 0.085 | doramapimod 0.031 | ispinesib -0.053 | bafetinib -0.138 | [5] 0.018 | nilotinib 0.014 | [6] -0.065 | dasatinib -0.094 | [7] 0.02 | [8] 0.044 | [9] -0.066 | tipifarnib -0.001 | mubritinib -0.01
